Data source: PubChem BioAssay AID1259405 (NCATS, 2018)
The whole screen tested about 50,000 reagents; this is a part drawn at random. About 4,000 of all reagents (8%) count as active. 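Mouse siRNA library applied to hamster cells; one well for each siRNA.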 Reagents against one gene are numbered here.

Test: 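Knock-downs that lift recombinant protein yield in hamster ovary cells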 (primary screen)
System: Chinese hamster CHO-K1 ovary cells with stable secreted eGFP expression
Knock-down reagent: single siRNA against mouse genes, 0.8 pmol siRNA per well (2 µl of 400 nM stock)
Time to read-out: 3 days
Measured: 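Percent of the per-plate non-targeting control median for intracellular GFP per well by laser scanning cytometry and for cell viability by ATP luminescence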
Reading the numbers: GFP, % of control: higher = more GFP per well, higher productivity; viability (ATP), % of control: higher = more viable cells (more ATP)
Hit rule: 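Called active when intracellular GFP, relative to negative control, is at or above 120%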

no.	target	reagent no.	GFP, % of control	viability (ATP), % of control	outcome
1	Adam6b	1	62.7	45.8	inactive
2	Adam6b	2	67.3	79.3	inactive
3	Adam6b	3	78.9	90.4	inactive
4	Grid2	1	47.1	50.4	inactive
5	Grid2	2	67.8	64.7	inactive
6	Grid2	3	60.3	50.1	inactive
7	Il36g	1	71.5	65.1	inactive
8	Il36g	2	76.4	81.8	inactive
9	Il36g	3	102	52	inactive
10	Nsf	1	124	105	active
11	Nsf	2	121	76.5	active
12	Nsf	3	89	79.6	inactive
13	Tas2r139	1	55.6	54.1	inactive
14	Tas2r139	2	66.9	72.6	inactive
15	Tas2r139	3	90.4	60.8	inactive
16	Zfp36l3	1	60	84.7	inactive
17	Zfp36l3	2	126	72.3	active
18	Zfp36l3	3	54.5	72.5	inactive
19	Klhdc10	1	62.2	61.8	inactive
20	Klhdc10	2	117	95.7	inactive
21	Klhdc10	3	73.5	78.3	inactive
22	Gbp2	1	100	88	inactive
23	Gbp2	2	42.5	52.6	inactive
24	Gbp2	3	66.5	69.8	inactive
25	Rln1	1	88.6	65.7	inactive
26	Rln1	2	33.2	38.8	inactive
27	Rln1	3	71.9	68.5	inactive
28	Ahr	1	59.5	77.8	inactive
29	Ahr	2	70.6	70	inactive
30	Ahr	3	101	87.3	inactive
31	Mea1	1	58.1	38.6	inactive
32	Mea1	2	107	102	inactive
33	Mea1	3	83.1	61	inactive
34	Trpa1	1	84.9	46	inactive
35	Trpa1	2	86.5	88	inactive
36	Trpa1	3	130	75	active
37	Pex19	1	74.8	49.6	inactive
38	Pex19	2	54.8	47	inactive
39	Pex19	3	88.4	101	inactive
40	Aqp11	1	93	102	inactive
41	Aqp11	2	61.6	66.1	inactive
42	Msantd4	1	46.3	44.1	inactive
43	Msantd4	2	74.3	79.3	inactive
44	Msantd4	3	100	111	inactive
45	Wdr6	1	94.6	60.2	inactive
46	Wdr6	2	86.5	77	inactive
47	Wdr6	3	86.7	101	inactive
48	Slc26a6	1	61.6	63.9	inactive
49	Slc26a6	2	74.3	69.1	inactive
50	Slc26a6	3	67.9	88.5	inactive
51	Galr3	1	76.7	37.3	inactive
52	Galr3	2	71.8	82	inactive
53	Galr3	3	67.2	61.9	inactive
54	Itgae	1	62.5	70.3	inactive
55	Itgae	2	89.2	80.3	inactive
56	Myoz1	1	67.3	37.5	inactive
57	Myoz1	2	111	50.3	inactive
58	Myoz1	3	72.2	54.4	inactive
59	Tbx19	1	71.3	75.4	inactive
60	Tbx19	2	70	58.5	inactive
61	Tbx19	3	96.6	106	inactive
62	Serpine2	1	92	106	inactive
63	Serpine2	2	43.4	67.7	inactive
64	Serpine2	3	43.2	80.7	inactive
65	Mthfd1	1	108	116	inactive
66	Mthfd1	2	109	81.9	inactive
67	Mthfd1	3	141	89.3	active
68	Or8g32	1	68.5	71.6	inactive
69	Or8g32	2	92.8	46	inactive
70	Or8g32	3	81.6	122	inactive
71	Ddb1	1	118	77.6	inactive
72	Ddb1	2	87.3	86.2	inactive
73	Ddb1	3	44.3	53.6	inactive
74	Srek1	1	43.5	67.6	inactive
75	Srek1	2	61.4	78.9	inactive
76	Srek1	3	43.4	44.7	inactive
77	Utp15	1	69.5	52.1	inactive
78	Utp15	2	60.6	71.5	inactive
79	Utp15	3	71.6	82.7	inactive
80	Islr2	1	31.9	61.9	inactive
81	Islr2	2	76.4	55.8	inactive
82	Islr2	3	35.2	49.5	inactive
83	Rps18	1	48	39.9	inactive
84	Rps18	2	153	75.6	active
85	Rps18	3	92.7	55.1	inactive
86	Xrn2	1	39.1	85.6	inactive
87	Xrn2	2	122	104	active
88	Xrn2	3	54	33.7	inactive
89	Or1o2	1	40.8	45.1	inactive
90	Or1o2	2	73.5	70.5	inactive
91	Or1o2	3	69.5	57.6	inactive
92	Acox3	1	115	116	inactive
93	Acox3	2	84.6	68.3	inactive
94	Acox3	3	54	76.4	inactive
95	Reep5	1	80.8	91.7	inactive
96	Reep5	2	71.1	66.3	inactive
97	Reep5	3	44.7	65.3	inactive
98	Fras1	1	70.8	72.5	inactive
99	Fras1	2	64.1	87.7	inactive
100	Fras1	3	57.5	65.3	inactive
101	Wnt5b	1	51.3	53.3	inactive
102	Wnt5b	2	85.5	54.3	inactive
103	Wnt5b	3	65.5	61.9	inactive
104	Lrrc1	1	52.8	48.2	inactive
105	Lrrc1	2	53.3	67.2	inactive
106	Lrrc1	3	129	80.5	active
107	Usp12	1	73.1	106	inactive
108	Usp12	2	53.5	55.5	inactive
109	Usp12	3	52.5	64	inactive
